# Results: the supplement of paper PMC8728848
# The other results are listed elsewhere or left out.
# B1: CD23 (Homo sapiens) (protein)
# chain: MELQVSSGFVCNTCPEKWINFQRKCYYFGKGTKQWVHARYACDDMEGQLVSIHSPEEQDFLTKRASHTGSWIGLRNLDLKGEFIWVDGSHVDYSNWAPGEPTSRSQSEDCVMMRGSGRWNDAFCDRKLGAWVCDRLATCTPPASEGSAESMGPDSRPDPDGRLPTPSAPLHS
# Key:
# Assay in all cases: glycan array binding signal (z-score within array); higher = stronger binding
# Settings in all cases: glycan notation: IUPAC condensed, linker removed; mutation: H213R,G256S
# Fuc(b1-3)GlcNAc = target: Fuc(b1-3)GlcNAc
# In short: (§1)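 Columns mapping to the same glycan were averaged after glycan names were converted to IUPAC-condensed notation. The data come from 3228 arrays in the Consortium for Functional Glycomics database, limited to those with an available protein sequence. Binding is reported as a within-array Z-score averaged across arrays of one protein sequence and across linkers.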
# Gal(a1-2)Gal = target: Gal(a1-2)Gal
# In short: as §1
# Gal(a1-3)Gal = target: Gal(a1-3)Gal
# In short: as §1
# Gal(a1-3)Gal(b1-3)GlcNAc = target: Gal(a1-3)Gal(b1-3)GlcNAc
# In short: as §1
# Gal(a1-3)Gal(b1-4)Glc = target: Gal(a1-3)Gal(b1-4)Glc
# In short: as §1
# Gal(a1-3)Gal(b1-4)GlcNAc = target: Gal(a1-3)Gal(b1-4)GlcNAc
# In short: as §1
# [1] = target: Gal(a1-3)Gal(b1-4)[Fuc(a1-3)]GlcNAc
# In short: as §1
# Gal(a1-3)GalNAc = target: Gal(a1-3)GalNAc
# In short: as §1
# [2] = target: Gal(a1-3)[Gal(a1-4)]Gal(b1-4)GlcNAc
# In short: as §1
# Gal(a1-4)Gal(b1-4)Glc = target: Gal(a1-4)Gal(b1-4)Glc
# In short: as §1
# Gal(a1-4)Gal(b1-4)GlcNAc = target: Gal(a1-4)Gal(b1-4)GlcNAc
# In short: as §1
# Gal(a1-4)GlcNAc = target: Gal(a1-4)GlcNAc
# In short: as §1
# Gal(a1-6)Glc = target: Gal(a1-6)Glc
# In short: as §1
# Gal(b1-2)Gal = target: Gal(b1-2)Gal
# In short: as §1
# Gal(b1-3)Gal = target: Gal(b1-3)Gal
# In short: as §1
# Gal(b1-3)GalNAc = target: Gal(b1-3)GalNAc
# In short: as §1
# [3] = target: Gal(b1-3)GalNAc(b1-3)Gal(a1-4)Gal(b1-4)Glc
# In short: as §1
# [4] = target: Gal(b1-3)GalNAc(b1-4)Gal(b1-4)Glc
# In short: as §1
# [5] = target: Gal(b1-3)GalNAc(b1-4)[Neu5Ac(a2-3)]Gal(b1-4)Glc
# In short: as §1
# Gal(b1-3)GlcNAc = target: Gal(b1-3)GlcNAc
# In short: as §1
# [6] = target: Gal(b1-3)GlcNAc(b1-3)Gal(b1-3)GlcNAc
# In short: as §1
# [7] = target: Gal(b1-3)GlcNAc(b1-3)Gal(b1-4)Glc
# In short: as §1
# [8] = target: Gal(b1-3)GlcNAc(b1-3)Gal(b1-4)GlcNAc
# In short: as §1
# [9] = target: Gal(b1-3)[Fuc(a1-4)]GlcNAc
# In short: as §1
# [10] = target: Gal(b1-3)[Fuc(a1-4)]GlcNAc(b1-3)Gal(b1-3)[Fuc(a1-4)]GlcNAc
# In short: as §1
# [11] = target: Gal(b1-3)[Fuc(a1-4)]GlcNAc(b1-3)Gal(b1-4)GlcNAc
# In short: as §1
# [12] = target: Gal(b1-3)[Fuc(a1-4)]GlcNAc(b1-3)Gal(b1-4)[Fuc(a1-3)]GlcNAc
# In short: as §1
# [13] = target: Gal(b1-3)[GlcNAc(b1-6)]GalNAc
# In short: as §1
# [14] = target: Gal(b1-3)[Neu5Ac(a2-6)]GalNAc
# In short: as §1
# [15] = target: Gal(b1-3)[Neu5Ac(a2-6)]GlcNAc(b1-6)Gal(b1-4)Glc
# In short: as §1
# [16] = target: Gal(b1-3)[Neu5Ac(b2-6)]GalNAc
# In short: as §1
# [17] = target: Gal(b1-4)GalNAc(a1-3)[Fuc(a1-2)]Gal(b1-4)GlcNAc
# In short: as §1
# [18] = target: Gal(b1-4)GalNAc(b1-3)[Fuc(a1-2)]Gal(b1-4)GlcNAc
# In short: as §1
# Gal(b1-4)Glc = target: Gal(b1-4)Glc
# In short: as §1
# Gal(b1-4)Glc6S = target: Gal(b1-4)Glc6S
# In short: as §1
# Gal(b1-4)GlcNAc = target: Gal(b1-4)GlcNAc
# In short: as §1
# [19] = target: Gal(b1-4)GlcNAc(b1-2)Man(a1-3)[Gal(b1-4)GlcNAc(b1-2)Man(a1-6)]Man(b1-4)GlcNAc(b1-4)GlcNAc
# In short: as §1
# [20] = target: Gal(b1-4)GlcNAc(b1-3)Gal(b1-3)GlcNAc
# In short: as §1
# [21] = target: Gal(b1-4)GlcNAc(b1-3)Gal(b1-4)Glc
# In short: as §1
# [22] = target: Gal(b1-4)GlcNAc(b1-3)Gal(b1-4)GlcNAc
# In short: as §1
# [23] = target: Gal(b1-4)GlcNAc(b1-3)Gal(b1-4)GlcNAc(b1-3)Gal(b1-4)GlcNAc
# In short: as §1
# [24] = target: Gal(b1-4)GlcNAc(b1-3)Gal(b1-4)[Fuc(a1-3)]GlcNAc(b1-3)Gal(b1-4)[Fuc(a1-3)]GlcNAc
# In short: as §1
# [25] = target: Gal(b1-4)GlcNAc(b1-3)GalNAc
# In short: as §1
# [26] = target: Gal(b1-4)GlcNAc(b1-3)[Gal(b1-4)GlcNAc(b1-6)]GalNAc
# In short: as §1
# [27] = target: Gal(b1-4)GlcNAc(b1-6)Gal(b1-4)GlcNAc(b1-6)GalNAc
# In short: as §1
binder,measurement,setting,value
B1,glycan array binding signal (z-score),Fuc(b1-3)GlcNAc,-0.08
same,glycan array binding signal (z-score),Gal(a1-2)Gal,-0.069
same,glycan array binding signal (z-score),Gal(a1-3)Gal,0.091
same,glycan array binding signal (z-score),Gal(a1-3)Gal(b1-3)GlcNAc,-0.532
same,glycan array binding signal (z-score),Gal(a1-3)Gal(b1-4)Glc,-0.051
same,glycan array binding signal (z-score),Gal(a1-3)Gal(b1-4)GlcNAc,0.01
same,glycan array binding signal (z-score),[1],-0.416
same,glycan array binding signal (z-score),Gal(a1-3)GalNAc,0.006
same,glycan array binding signal (z-score),[2],0.271
same,glycan array binding signal (z-score),Gal(a1-4)Gal(b1-4)Glc,-0.15
same,glycan array binding signal (z-score),Gal(a1-4)Gal(b1-4)GlcNAc,-0.223
same,glycan array binding signal (z-score),Gal(a1-4)GlcNAc,0.434
same,glycan array binding signal (z-score),Gal(a1-6)Glc,-0.039
same,glycan array binding signal (z-score),Gal(b1-2)Gal,-0.096
same,glycan array binding signal (z-score),Gal(b1-3)Gal,-0.106
same,glycan array binding signal (z-score),Gal(b1-3)GalNAc,-0.152
same,glycan array binding signal (z-score),[3],-0.145
same,glycan array binding signal (z-score),[4],0.064
same,glycan array binding signal (z-score),[5],-0.112
same,glycan array binding signal (z-score),Gal(b1-3)GlcNAc,-0.167
same,glycan array binding signal (z-score),[6],-0.282
same,glycan array binding signal (z-score),[7],-0.418
same,glycan array binding signal (z-score),[8],-0.144
same,glycan array binding signal (z-score),[9],0
same,glycan array binding signal (z-score),[10],0.255
same,glycan array binding signal (z-score),[11],-0.528
same,glycan array binding signal (z-score),[12],-0.654
same,glycan array binding signal (z-score),[13],-0.353
same,glycan array binding signal (z-score),[14],-0.284
same,glycan array binding signal (z-score),[15],-0.248
same,glycan array binding signal (z-score),[16],-0.394
same,glycan array binding signal (z-score),[17],-0.433
same,glycan array binding signal (z-score),[18],0.159
same,glycan array binding signal (z-score),Gal(b1-4)Glc,-0.429
same,glycan array binding signal (z-score),Gal(b1-4)Glc6S,-0.283
same,glycan array binding signal (z-score),Gal(b1-4)GlcNAc,-0.351
same,glycan array binding signal (z-score),[19],-0.433
same,glycan array binding signal (z-score),[20],0.056
same,glycan array binding signal (z-score),[21],-0.657
same,glycan array binding signal (z-score),[22],-0.477
same,glycan array binding signal (z-score),[23],-0.341
same,glycan array binding signal (z-score),[24],0.162
same,glycan array binding signal (z-score),[25],-0.481
same,glycan array binding signal (z-score),[26],-0.287
same,glycan array binding signal (z-score),[27],-0.27

# Given tab-delimited: entries from further up
binder	measurement	setting	value
B1	glycan array binding signal (z-score)	[24]	0.162
same	glycan array binding signal (z-score)	[26]	-0.287
